Experimental findings from the odorant receptor screen of Mainland et al. (2015) are described below.

Where “and” joins values, the source holds several entries; their conditions need not be identical. Identical values can stand only once. The list shows a part of the results. Each value is one well over the wells without odorant, computed here; the data are noisy.

In this test the test system is OR2T6 N21D/C23G/S243A clone 1432. Put plainly: odorant receptor activation (CRE luciferase / Renilla) (fold of no-odor wells); higher = more activation. To be noted: 100 µM.
Consider `COC(=O)c1ccccc1` [methyl benzoate], for which the odorant receptor activation turned out to be 0.878.
The compound `CCCCCCCOC(C)=O` [heptyl acetate] registered an odorant receptor activation of 1.11.
The compound `COc1ccccc1O` [guaiacol] displayed an odorant receptor activation of 0.758.
Consider `CC(=O)OCC=C(C)CCC=C(C)C` [geranyl acetate], for which the odorant receptor activation came out at 1.15.
With `CC(=O)OC1CC2CCC1(C)C2(C)C` (configuration not stated) [isobornyl acetate], the odorant receptor activation was determined as 0.876.
As to `CCCCCC(C)=O` [2-heptanone], the odorant receptor activation came to 1.13.
As for `CCCCCOC(C)=O` [n-amyl acetate], the figure is 0.979; as for `CC12C=CCC1C1CCC3CC(=O)CCC3(C)C1CC2` (configuration not stated) [androstenone], 0.985; as for `CCCCCCOC(=O)CCC` [hexyl butyrate], 0.836.
Compound `CCC1(O)C2(C)CCC(C2)C1(C)C` (configuration not stated) [2-ethylfenchol] came in with an odorant receptor activation of 1.23.
Take `C=C(C)C1CC=CCC1` (configuration not stated) [r-limonene]: the odorant receptor activation was 1.16 and 1.05.
Turning to `CC1COCc2cc3c(cc21)C(C)(C)C(C)C3(C)C` (configuration not stated) [galaxolide], the odorant receptor activation was 2.63.
In the case of `CCCCCCC=O` [heptaldehyde], the odorant receptor activation was 1.13 and 0.733.
`CC(C)CC(=O)O` [isovaleric acid]: the odorant receptor activation stood at 0.856.
For `CC12C=CCC1C1CCC3=CC(=O)CCC3(C)C1CC2` (configuration not stated) [androstadienone] the value was 0.793; for `CC(C)(C)c1ccc(CCC=O)cc1` [bourgeonal], 0.154.
`O=C1CCCCCCCCCCCCCCO1` [pentadecalactone] came in with an odorant receptor activation of 1.01.
For `CC1=NC(C)SC1C` (configuration not stated) the value was 1.25; for `CCCCCC(=O)O` [caproic acid], 0.151.
Take `CCCCCCCCCCC=O` [undecanal]: the odorant receptor activation was found to be 0.94.
Turning to `O=C1CCCCC1` [Cyclohexanone], the odorant receptor activation came out at 1.01.
On to `C=CCc1ccc(O)c(OC)c1` [eugenol], for which the odorant receptor activation was 1.62 and 1.27.
